Where a name gives a salt, the structure may show the parent alone. Some of the results follow. The calls rarely recur for the same compound in another form.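 Kinases, fused to nanoluciferase, were expressed in K562 cells; luminescence was measured every 4 h from 2 to 18 h as percent of control (DMSO = 100%, positive control = 0%). A time point is decreased if signal falls significantly (2 sigma). Hits were called by the authors by a rule that is not shown; the count of time points alone does not decide it.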
Tests used:
Test in all cases: number of time points (of 5) at which kinase-Nluc abundance scored as decreased, DMSO-normalised (count); higher = more persistent destabilization
Conditions in all cases: K562; 2-18 h
[1] = molecular target: CSNK1A1 (UniProt P48729)
[2] = molecular target: CSNK1D (UniProt P48730)
[3] = molecular target: DDR1 (UniProt Q08345)
[4] = molecular target: DYRK1B (UniProt Q9Y463)
[5] = molecular target: DYRK2 (UniProt Q92630)
[6] = molecular target: EGFR (UniProt P00533)
[7] = molecular target: EGFR_G719S (UniProt P00533)
[8] = molecular target: EGFR_G719S_T790M (UniProt P00533)
[9] = molecular target: EGFR_L718V (UniProt P00533)
[10] = molecular target: EGFR_L858R (UniProt P00533)
[11] = molecular target: EGFR_L861Q (UniProt P00533)
[12] = molecular target: EGFR_T790M (UniProt P00533)
[13] = molecular target: EPHA2 (UniProt P29317)
[14] = molecular target: ERBB3 (UniProt P21860)
[15] = molecular target: ERBB4_R711C (clone: ERBB4_mut) (UniProt Q15303)
[16] = molecular target: ERN1 (UniProt O75460)
[17] = molecular target: FGFR1 (UniProt P11362)
[18] = molecular target: FGFR2 (UniProt P21802)
[19] = molecular target: FGFR3 (UniProt P22607)
[20] = molecular target: FGR (UniProt P09769)

Protein sequences, listed by entry. Tags and fused reporters are not part of them. Lines headed by an entry give the natural chain unless they say otherwise; changes in a name come on top.
UniProt P48729: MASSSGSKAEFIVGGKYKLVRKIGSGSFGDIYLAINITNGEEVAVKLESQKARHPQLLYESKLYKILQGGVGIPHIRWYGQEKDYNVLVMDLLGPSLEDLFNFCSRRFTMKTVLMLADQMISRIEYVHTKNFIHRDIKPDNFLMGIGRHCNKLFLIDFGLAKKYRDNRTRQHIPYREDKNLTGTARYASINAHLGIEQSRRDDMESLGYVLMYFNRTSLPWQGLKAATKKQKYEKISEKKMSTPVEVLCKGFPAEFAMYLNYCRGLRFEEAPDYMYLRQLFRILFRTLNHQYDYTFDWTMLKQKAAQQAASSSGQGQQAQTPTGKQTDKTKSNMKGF
UniProt Q08345: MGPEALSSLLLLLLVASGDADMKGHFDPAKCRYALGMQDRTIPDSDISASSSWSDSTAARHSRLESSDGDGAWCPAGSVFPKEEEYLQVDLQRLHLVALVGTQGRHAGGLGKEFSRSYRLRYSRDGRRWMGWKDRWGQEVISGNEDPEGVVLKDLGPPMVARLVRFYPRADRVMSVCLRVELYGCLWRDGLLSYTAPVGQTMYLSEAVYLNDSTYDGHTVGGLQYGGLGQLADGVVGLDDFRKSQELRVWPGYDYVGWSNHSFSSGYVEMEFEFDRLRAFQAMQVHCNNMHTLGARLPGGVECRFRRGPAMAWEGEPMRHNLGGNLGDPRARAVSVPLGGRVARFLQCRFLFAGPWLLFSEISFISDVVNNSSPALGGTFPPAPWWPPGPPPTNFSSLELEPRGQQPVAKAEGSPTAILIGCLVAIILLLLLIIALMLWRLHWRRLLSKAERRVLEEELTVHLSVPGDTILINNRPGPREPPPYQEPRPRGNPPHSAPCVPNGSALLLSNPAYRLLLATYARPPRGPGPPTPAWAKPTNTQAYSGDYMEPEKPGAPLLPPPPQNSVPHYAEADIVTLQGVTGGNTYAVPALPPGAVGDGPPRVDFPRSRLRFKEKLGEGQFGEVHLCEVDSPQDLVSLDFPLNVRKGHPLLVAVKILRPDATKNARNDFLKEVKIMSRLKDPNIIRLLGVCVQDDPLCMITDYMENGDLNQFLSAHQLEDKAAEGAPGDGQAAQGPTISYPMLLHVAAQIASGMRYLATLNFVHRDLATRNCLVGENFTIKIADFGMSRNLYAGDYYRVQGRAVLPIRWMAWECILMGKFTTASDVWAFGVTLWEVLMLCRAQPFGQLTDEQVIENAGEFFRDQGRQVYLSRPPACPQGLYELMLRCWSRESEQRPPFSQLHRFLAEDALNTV
UniProt Q9Y463, whole entry, looked up: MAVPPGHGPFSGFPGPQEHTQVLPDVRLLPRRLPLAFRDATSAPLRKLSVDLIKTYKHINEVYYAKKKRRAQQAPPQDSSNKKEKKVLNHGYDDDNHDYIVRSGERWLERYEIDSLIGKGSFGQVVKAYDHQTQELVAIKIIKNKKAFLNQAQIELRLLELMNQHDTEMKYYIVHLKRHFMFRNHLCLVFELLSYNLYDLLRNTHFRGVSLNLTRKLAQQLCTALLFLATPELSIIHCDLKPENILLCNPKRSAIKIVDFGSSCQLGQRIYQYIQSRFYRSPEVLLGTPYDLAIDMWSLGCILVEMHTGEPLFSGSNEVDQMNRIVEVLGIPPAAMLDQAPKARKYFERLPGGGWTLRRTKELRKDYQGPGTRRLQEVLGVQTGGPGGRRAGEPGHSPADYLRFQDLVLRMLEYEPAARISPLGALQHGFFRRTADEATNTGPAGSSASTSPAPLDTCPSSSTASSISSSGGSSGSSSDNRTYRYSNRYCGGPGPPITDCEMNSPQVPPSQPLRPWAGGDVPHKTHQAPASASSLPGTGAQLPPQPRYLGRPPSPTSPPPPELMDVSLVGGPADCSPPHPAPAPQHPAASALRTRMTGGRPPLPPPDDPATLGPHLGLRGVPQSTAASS
UniProt Q92630: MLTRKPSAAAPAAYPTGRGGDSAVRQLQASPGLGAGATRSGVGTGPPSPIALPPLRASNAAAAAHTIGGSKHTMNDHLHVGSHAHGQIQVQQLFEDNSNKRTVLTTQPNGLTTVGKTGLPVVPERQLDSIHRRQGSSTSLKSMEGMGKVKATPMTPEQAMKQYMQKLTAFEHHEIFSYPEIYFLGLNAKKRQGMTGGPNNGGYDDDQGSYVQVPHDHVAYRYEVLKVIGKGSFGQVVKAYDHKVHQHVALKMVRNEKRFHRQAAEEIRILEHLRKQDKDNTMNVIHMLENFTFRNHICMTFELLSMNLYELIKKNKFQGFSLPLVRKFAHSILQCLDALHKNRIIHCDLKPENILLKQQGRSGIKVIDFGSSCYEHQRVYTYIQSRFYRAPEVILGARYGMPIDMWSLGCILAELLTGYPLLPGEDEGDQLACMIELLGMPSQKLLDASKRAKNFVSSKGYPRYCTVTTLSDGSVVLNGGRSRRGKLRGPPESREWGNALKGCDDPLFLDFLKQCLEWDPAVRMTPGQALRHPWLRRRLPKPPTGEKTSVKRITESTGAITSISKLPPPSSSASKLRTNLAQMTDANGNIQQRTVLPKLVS
UniProt P29317, whole entry: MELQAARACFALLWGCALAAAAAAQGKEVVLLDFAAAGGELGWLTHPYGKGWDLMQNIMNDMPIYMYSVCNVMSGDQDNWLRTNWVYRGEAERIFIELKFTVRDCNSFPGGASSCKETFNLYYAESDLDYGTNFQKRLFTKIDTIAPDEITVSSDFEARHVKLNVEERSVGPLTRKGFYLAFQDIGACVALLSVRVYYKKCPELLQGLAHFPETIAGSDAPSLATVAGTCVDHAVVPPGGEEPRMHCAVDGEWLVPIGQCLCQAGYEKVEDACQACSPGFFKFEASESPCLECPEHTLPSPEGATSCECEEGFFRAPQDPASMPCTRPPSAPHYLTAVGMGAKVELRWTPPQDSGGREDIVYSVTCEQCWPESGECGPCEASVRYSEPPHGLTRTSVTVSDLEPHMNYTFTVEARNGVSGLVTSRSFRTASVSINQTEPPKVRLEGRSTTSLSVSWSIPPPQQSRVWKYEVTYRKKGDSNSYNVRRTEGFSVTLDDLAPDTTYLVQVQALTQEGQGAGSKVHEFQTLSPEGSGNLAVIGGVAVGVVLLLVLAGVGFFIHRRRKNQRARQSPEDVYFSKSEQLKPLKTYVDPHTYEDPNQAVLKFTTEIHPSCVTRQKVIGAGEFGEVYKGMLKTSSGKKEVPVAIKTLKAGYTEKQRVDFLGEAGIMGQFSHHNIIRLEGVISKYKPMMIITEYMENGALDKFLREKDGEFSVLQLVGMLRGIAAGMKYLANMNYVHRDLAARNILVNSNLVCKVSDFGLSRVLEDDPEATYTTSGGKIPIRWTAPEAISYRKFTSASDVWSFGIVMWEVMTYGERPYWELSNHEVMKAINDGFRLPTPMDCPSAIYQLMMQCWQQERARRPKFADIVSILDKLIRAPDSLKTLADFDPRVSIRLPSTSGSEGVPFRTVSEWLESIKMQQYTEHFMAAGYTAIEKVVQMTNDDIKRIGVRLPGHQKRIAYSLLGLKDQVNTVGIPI
UniProt Q15303, whole entry R711C: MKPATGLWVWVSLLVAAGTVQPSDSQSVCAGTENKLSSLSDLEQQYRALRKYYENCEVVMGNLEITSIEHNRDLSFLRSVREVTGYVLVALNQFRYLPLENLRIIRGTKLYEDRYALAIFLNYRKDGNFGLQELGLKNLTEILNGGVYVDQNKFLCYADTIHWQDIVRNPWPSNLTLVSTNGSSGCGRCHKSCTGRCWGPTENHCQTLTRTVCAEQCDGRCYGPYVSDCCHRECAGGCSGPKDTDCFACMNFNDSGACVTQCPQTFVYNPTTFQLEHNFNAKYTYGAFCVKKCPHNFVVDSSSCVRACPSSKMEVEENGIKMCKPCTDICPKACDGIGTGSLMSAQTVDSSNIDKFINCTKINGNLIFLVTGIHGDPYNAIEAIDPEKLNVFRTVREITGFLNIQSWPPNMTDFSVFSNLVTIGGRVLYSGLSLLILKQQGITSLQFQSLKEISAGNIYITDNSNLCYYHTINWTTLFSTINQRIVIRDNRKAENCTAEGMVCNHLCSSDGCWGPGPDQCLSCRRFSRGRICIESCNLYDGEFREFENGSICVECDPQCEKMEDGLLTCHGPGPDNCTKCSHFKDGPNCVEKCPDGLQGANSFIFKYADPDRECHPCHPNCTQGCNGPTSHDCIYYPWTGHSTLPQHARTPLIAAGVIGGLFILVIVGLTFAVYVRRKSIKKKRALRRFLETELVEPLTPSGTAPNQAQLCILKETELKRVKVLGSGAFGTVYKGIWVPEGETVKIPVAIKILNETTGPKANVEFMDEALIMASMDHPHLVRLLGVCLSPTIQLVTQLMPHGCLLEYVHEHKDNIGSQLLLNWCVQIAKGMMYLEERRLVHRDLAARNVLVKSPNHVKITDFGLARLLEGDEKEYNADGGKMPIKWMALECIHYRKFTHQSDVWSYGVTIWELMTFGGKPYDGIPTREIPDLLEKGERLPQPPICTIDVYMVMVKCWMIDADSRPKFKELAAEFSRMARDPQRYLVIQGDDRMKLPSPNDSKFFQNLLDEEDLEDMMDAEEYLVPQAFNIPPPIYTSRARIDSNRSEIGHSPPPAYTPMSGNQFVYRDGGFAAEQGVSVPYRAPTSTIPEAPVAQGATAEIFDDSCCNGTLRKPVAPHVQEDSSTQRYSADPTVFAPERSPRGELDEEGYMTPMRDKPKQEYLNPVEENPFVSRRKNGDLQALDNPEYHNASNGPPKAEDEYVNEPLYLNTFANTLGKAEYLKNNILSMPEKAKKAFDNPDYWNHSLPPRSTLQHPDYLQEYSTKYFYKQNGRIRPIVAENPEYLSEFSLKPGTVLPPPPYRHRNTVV
UniProt P21802, whole entry, looked up: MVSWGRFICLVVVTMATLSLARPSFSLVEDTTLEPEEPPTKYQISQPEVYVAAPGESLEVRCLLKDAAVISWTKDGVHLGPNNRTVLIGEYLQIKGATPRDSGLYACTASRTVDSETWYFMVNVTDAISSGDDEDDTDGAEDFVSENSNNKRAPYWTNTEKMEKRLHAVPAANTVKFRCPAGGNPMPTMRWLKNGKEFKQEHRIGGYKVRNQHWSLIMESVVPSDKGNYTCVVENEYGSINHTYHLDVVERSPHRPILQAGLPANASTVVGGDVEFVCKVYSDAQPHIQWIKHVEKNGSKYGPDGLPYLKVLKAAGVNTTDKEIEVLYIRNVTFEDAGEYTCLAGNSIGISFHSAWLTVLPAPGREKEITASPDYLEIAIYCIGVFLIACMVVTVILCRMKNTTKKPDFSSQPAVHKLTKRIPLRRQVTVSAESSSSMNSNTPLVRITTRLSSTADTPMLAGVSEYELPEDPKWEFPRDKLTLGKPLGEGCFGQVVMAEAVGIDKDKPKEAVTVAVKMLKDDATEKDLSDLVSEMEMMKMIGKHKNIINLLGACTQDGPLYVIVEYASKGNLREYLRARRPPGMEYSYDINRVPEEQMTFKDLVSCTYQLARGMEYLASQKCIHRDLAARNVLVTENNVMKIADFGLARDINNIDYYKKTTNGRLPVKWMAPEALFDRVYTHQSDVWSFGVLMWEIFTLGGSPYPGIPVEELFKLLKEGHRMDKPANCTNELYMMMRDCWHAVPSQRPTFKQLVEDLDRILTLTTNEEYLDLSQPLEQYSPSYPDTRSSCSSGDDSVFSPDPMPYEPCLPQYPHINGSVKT
UniProt P22607, whole entry, looked up: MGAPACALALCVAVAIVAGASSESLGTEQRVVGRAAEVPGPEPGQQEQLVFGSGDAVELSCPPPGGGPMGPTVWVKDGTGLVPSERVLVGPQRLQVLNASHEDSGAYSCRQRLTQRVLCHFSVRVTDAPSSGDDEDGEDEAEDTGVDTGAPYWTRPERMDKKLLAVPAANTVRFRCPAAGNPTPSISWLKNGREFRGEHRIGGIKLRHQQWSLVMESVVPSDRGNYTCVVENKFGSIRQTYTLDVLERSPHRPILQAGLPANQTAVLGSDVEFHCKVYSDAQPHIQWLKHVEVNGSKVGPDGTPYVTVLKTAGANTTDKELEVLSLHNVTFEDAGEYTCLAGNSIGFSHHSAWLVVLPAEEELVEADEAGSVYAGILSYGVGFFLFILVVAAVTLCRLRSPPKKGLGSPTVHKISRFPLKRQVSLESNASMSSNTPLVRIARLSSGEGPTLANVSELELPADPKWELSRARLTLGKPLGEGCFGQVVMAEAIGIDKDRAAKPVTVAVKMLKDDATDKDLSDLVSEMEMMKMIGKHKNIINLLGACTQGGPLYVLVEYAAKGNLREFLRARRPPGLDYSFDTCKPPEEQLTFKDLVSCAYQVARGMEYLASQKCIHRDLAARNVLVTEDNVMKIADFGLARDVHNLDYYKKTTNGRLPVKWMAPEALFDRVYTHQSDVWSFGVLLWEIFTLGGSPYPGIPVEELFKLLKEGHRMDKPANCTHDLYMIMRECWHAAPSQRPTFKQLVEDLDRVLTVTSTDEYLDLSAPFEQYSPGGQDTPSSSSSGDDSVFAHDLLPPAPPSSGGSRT

Measured: number of time points

CC(C)c1cc(/C=C(\C#N)C(=O)NCCCc2ccccc2)cc(C(C)C)c1O (10 µM)
1: [9]
2: [8]
0: all other assays above

CNC(=O)c1ccccc1Oc1nc(Nc2cc(OC)c(OC)c(OC)c2)ncc1Br (2.5 µM)
0: all assays above

O=C(CNc1cccc(Cl)c1)NC1CCCN(c2ncnc3[nH]ccc23)C1 (stereo not given) (10 µM)
0: all assays above

CCN(CC)CCC(=O)N1N=C(c2c(-c3ccccc3)c3cc(Br)ccc3[nH]c2=O)CC1c1ccc(Br)cc1 (stereo not given) (2.5 µM)
1: [3]
0: all other assays above

C=CC(=O)N1C(=O)CC(c2ccc(F)cc2)Sc2ccccc21 (stereo not drawn) [GSK-3β inhibitor 3] (10 µM)
2: [3] | [18]
1: [1]
0: all other assays above

Cc1cc(-c2ccnc(Nc3cnn(C)c3)n2)ccc1CNC(=O)N1CC(OC(C)C)C1 (10 µM)
0: all assays above

Nc1ncnc2c1c(-c1ccc(Oc3ccccc3)cc1)nn2C1CCN(CCOCCOCCOc2ccc3c(c2)CN(C2CCC(=O)NC2=O)C3=O)CC1 (stereo not given) (2.5 µM)
0: all assays above

C=C[C@@](C)(/C=C/c1ccc(O)cc1)CCC=C(C)C [Bakuchiol] (10 µM)
0: all assays above

Cn1cc(C2=C(c3cn(CCCSC(=N)N)c4ccccc34)C(=O)NC2=O)c2ccccc21 [Ro 31-8220 (mesylate)] (2.5 µM)
4: [15]
1: [7] | [8] | [14]
3: [5] | [11] | [18]
0: all other assays above

Cn1cc(-c2cnc3cnn(S(=O)(=O)c4cnc5ccc(-c6cnn(C)c6)cn45)c3c2)cn1 [Glumetinib] (10 µM)
0: all assays above

Nc1ncnc2c1c(COc1cccc(Cl)c1)nn2C1CCOCC1 (10 µM)
0: all assays above

CCn1c(=O)c(-c2cc[nH]n2)cc2c(C)nc(N)nc21 [Voxtalisib] (10 µM)
2: [11]
1: [15]
0: all other assays above

Cc1ccc2c(Nc3cccc(Cl)c3F)nccc2c1NC(=O)c1csc2c(N)ncnc12 [Belvarafenib] (10 µM)
0: all assays above

NC(=O)N1CCC(CC(=O)N2CCC([C@H]3c4ncc(Br)cc4CCc4cc(Cl)cc(Br)c43)CC2)CC1 [Lonafarnib] (2.5 µM)
0: all assays above

O=C(O)c1cc(N(Cc2ccccc2O)Cc2ccccc2O)ccc1O [Lavendustin B] (10 µM)
0: all assays above

Nc1nccc(Oc2ccc(NC(=O)c3c[nH]cc(-c4ccc(F)cc4)c3=O)cc2F)c1Cl (10 µM)
4: [5] | [14] | [15] | [17] | [18]
3: [2]
1: [4] | [6]
0: all other assays above

O=[N+]([O-])c1ccc2c(c1)S(=O)(=O)C=C2 [Stattic] (2.5 µM)
1: [11]
0: all other assays above

Ordered by count of non-hydrogen atoms (largest number first): part of the list above
CNC(=O)c1ccccc1Oc1nc(Nc2cc(OC)c(OC)c(OC)c2)ncc1Br (2.5 µM)
0: all assays above

O=C(O)c1cc(N(Cc2ccccc2O)Cc2ccccc2O)ccc1O [Lavendustin B] (10 µM)
0: all assays above

C=CC(=O)N1C(=O)CC(c2ccc(F)cc2)Sc2ccccc21 (stereo not drawn) [GSK-3β inhibitor 3] (10 µM)
2: [3] | [18]
1: [1]
0: all other assays above

(more compounds)

COc1cc(/C=C/C(=O)N2CCC=CC2=O)cc(OC)c1OC [Piperlongumine] (2.5 µM)
1: [8]
3: [3]
2: [13] | [14]
0: all other assays above

Cn1ncc2cc(-c3cnc(N)c(Cl)c3N3CCC4(CCNC4=O)CC3)ccc21 (10 µM)
0: all assays above

CN(c1ccc(NC(=O)Nc2ccc(OC(F)(F)F)cc2)cc1)c1ccnc(Nc2cccc(S(N)(=O)=O)c2)n1 (2.5 µM)
1: [4] | [6] | [10] | [16]
4: [3] | [5]
3: [1] | [2] | [7] | [11] | [14] | [15] | [18]
0: all other assays above

Cc1cc(Nc2ncnc3ccc(-c4ccc(CNCCS(C)(=O)=O)o4)cc23)ccc1Oc1ccn2ncnc2c1 [ARRY-380 (analog )] (2.5 µM)
0: all assays above

CC(C)N1CCN(c2ccc(Nc3ncc4cc5n(c4n3)C3(CCCCC3)CNC5=O)nc2)CC1 [Lerociclib (dihydrochloride)] (2 µM)
3: [18]
4: [15]
2: [3] | [5] | [16]
0: all other assays above

CN1CCC(c2ccccc2CC(C)(C)Nc2nc(N3CCOCC3)nc(-n3c(C(F)F)nc4ccccc43)n2)CC1 [Zandelisib] (10 µM)
0: all assays above

C#Cc1cccc(Nc2ncnc3cc(OC)c(OCCCCCCC(=O)NO)cc23)c1 (2.5 µM)
0: all assays above

Reference: the supplement of paper PMC12823440, “Inhibitors supercharge kinase turnover through native proteolytic circuits” (Nature, 2025)
